The test addresses T1, HSPBP1 (UniProt Q9NZL4).
T1 sequence (whole entry): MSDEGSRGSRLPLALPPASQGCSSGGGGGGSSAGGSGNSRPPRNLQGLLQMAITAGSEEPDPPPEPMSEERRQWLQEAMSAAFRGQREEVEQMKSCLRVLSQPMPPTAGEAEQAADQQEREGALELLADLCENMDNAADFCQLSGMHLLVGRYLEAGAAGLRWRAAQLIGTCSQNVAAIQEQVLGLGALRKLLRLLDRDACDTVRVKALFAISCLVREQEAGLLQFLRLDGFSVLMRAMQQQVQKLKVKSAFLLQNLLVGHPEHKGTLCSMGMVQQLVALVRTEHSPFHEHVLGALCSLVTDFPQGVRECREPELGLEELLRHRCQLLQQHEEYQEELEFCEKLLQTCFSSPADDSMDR
The test is described as follows: NP40-soluble protein abundance relative to vehicle (solubility fold change) (ratio); higher = more soluble protein in presence of GTP. The protocol:
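Solubility proteome profiling in Jurkat crude lysate. Lysate was treated with Mg-GTP (0.1-10 mM) for 10 min at room temperature and 3 min at 37 °C, then solubilised with 0.8% NP40 and benzonase, followed by ultracentrifugation. Proteins were quantified by TMT10 LC-MS/MS; the value is the NP40-soluble abundance relative to the NP40-processed vehicle, from 3 independent experiments.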

Each structure is given as a SMILES string. ± gives the standard deviation of the averaged measurements. This is one part of the list.

On to `Nc1nc2c(ncn2[C@@H]2O[C@H](COP(=O)(O)OP(=O)(O)OP(=O)(O)O)[C@@H](O)[C@H]2O)c(=O)[nH]1` [guanosine triphosphate], for which the NP40-soluble protein abundance runs as follows: (concentration: 0.1mM) 0.971 ± 0.024; (concentration: 0.5mM) 0.921 ± 0.055; (concentration: 1mM) 0.901 ± 0.013; (concentration: 2mM) 0.931 ± 0.031; (concentration: 4mM) 0.927 ± 0.045; (concentration: 6mM) 0.889 ± 0.047. Moreover, the NP40-soluble protein abundance by setting is: (concentration: 8mM) 0.832 ± 0.075; (concentration: 10mM) 0.886 ± 0.04.

The record behind these values is the supplement of paper PMC6411743.
